EP2845588A1, “PIN1 inhibitors for use in the prevention and/or treatment of theileriosis, and related applications” (Centre National de la Recherche Scientifique (CNRS), priority 2013, dated 2015)
For at least one compound, name, drawing or mass did not settle the structure.

By UniProt entry, the sequences of proteins in these tests, tags left out. Residues count along the entry.
UniProt Q4UG71, 33-142: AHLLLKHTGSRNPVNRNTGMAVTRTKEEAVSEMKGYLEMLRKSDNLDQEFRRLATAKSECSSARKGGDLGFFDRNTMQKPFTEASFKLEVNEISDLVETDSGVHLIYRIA

How the values were obtained:
TaPIN WT = target: T1, TaPIN WT (Theileria annulata, UniProt Q4UG71); assay: CyclinD1-Luciferase reporter assay, TaPIN WT in TBL3 cells; format: cell-based, T. annulata; settings: parasite-infected cells (TBL3)
T1 construct: expressed in transfected cells; host or cells: TBL3 (T. annulata-infected bovine B cells), electroporated with the pREV-HA-FLAG-RIL2 TaPIN plasmid
Method: Bovine cells were transfected with the 5xHRE (Staller et al., 2003) or CyclinD1- (Wulf et al., 2001) Luciferase reporters, using electroporation (Neon kit, Invitrogen, CA, USA). Mouse cells were transfected using Lipofectamine 2000 (Invitrogen, CA, USA). Transfections efficiencies were normalized to Renilla activity by co-transfection of a pRL-TK Renilla reporter plasmid (Promega, Ref.: E6241). Luciferase assays were performed 36h post-transfection using the Dual-Luciferase Reporter Assay System (Promega, Ref: E1980) in a microplate luminometer. Relative luminescence was represented as the ratio Firefly/Renilla luminescence, compared with the corresponding empty vector control. The 5xHRE promoter-Luciferase construct was obtained from P Staller (Biotech Research & Innovation Centre, Copenhagen, […]).

[1] = tested on: c-Jun and FBW7 ubiquitination in TBL3 cells; assay: Ubiquitination of endogenous c-Jun and FBW7 in TBL3 cells; format: cell-based, bovine
[2] = tested on: transcripts encoding glycolytic enzymes; assay: Expression of transcripts encoding glycolytic enzymes in Theileria-infected cells; format: cell-based, bovine
Method: Total cellular RNAs were extracted using an RNeasy Plus Mini Kit (Qiagen, Hilden, Germany) and parasite RNAs were extracted using the classical Trizol Protocol. cDNA synthesis was performed with the Reverse Transcriptase Superscript III (Invitrogen, CA, USA).
Quantitative PCR amplification was performed in the ABI 7500 machine (Applied Biosystems, CA, USA) using the Sybr Green reagent (Applied Biosystems, CA, USA) using the primers listed in Table 5 below. The detection of a single product was verified by dissociation curve analysis. Relative quantities of mRNA were analyzed using the delta Ct method. The βactin qPCR was used for normalization. Table 5: qPCR primers

## O=C1C=CC(=O)c2c(O)cccc21 [Juglone, 5-Hydroxy-1,4-naphthlenedione]
TaPIN WT
  CyclinD1 promoter activation by TaPIN WT: reversed
[1]; TBL3 cells
  ubiquitination of endogenous c-Jun protein: elevated
[1]; TBL3 cells overexpressing TaPIN A53P
  rescue of the drug effect on c-Jun ubiquitination by overexpressing the TaPIN A53P mutant: but not
[2]
  expression of the transcripts encoding glycolytic enzymes: reduced expression
